Assay results: patent US20120065063A1, “3-Aryl-4-(2,6-dimethylbenzylidene)isoxazol-5(4H)-ones as Fungicides” (Bayer CropScience AG, priority 2010, published 2012)
Some of these results come from one statement about several compounds together.

Legend:
Sphaerotheca fuliginea = experiment: Sphaerotheca test (cucumber)/protective; format: in vivo; conditions: protective, 500 ppm, evaluation 7 days after inoculation
Experimental: Sphaerotheca Test (Cucumber)/Protective [table] To produce an appropriate active compound formulation, 1 part by weight of active compound is mixed with the specified amounts of solvent and emulsifier, and the concentrate is diluted with water to the desired concentration. To test for protective activity, young cucumber plants are sprayed with the preparation of active compound at the stated application rate. 1 day after the treatment, the plants are inoculated with a spore suspension of Sphaerotheca fuliginea. The plants are then placed in a greenhouse at 70% relative atmospheric humidity and a temperature of 23° C.

Pyricularia oryzae = format: in vivo; conditions: rice, protective, 250 ppm, evaluation 7 days after inoculation
[1] = system: Blumeria graminis f.sp. tritici; experiment: Blumeria test (wheat)/protective; format: in vivo; conditions: protective, 1000 ppm, evaluation 7 days after inoculation
Experimental: Blumeria Test (Wheat)/Protective [table] To produce an appropriate active compound formulation, I part by weight of active compound is mixed with the specified amounts of solvent and emulsifier, and the concentrate is diluted with water to the desired concentration. To test for protective activity, young plants are sprayed with the preparation of active compound at the stated application rate. After the spray coating has dried on, the plants are dusted with spores of Blumeria graminis f.sp. tritici.

Venturia inaequalis = experiment: Venturia test (apple)/protective; format: in vivo; conditions: protective, 100 ppm, evaluation 10 days after inoculation
Experimental: Venturia Test (Apple)/Protective [table] To produce an appropriate active compound formulation, 1 part by weight of active compound is mixed with the specified amounts of solvent and emulsifier, and the concentrate is diluted with water to the desired concentration. To test for protective efficacy, young plants are sprayed with the active compound formulation at the stated application rate. After the spray coating has dried on, the plants are inoculated with an aqueous conidia suspension of the apple scab pathogen Venturia inaequalis and then remain in an incubation cabin at about 20° C. and 100% relative atmospheric humidity for 1 day. The plants are then placed in the greenhouse at about 21° C. and a relative atmospheric humidity of about 90%.

Alternaria solani = experiment: Alternaria test (tomato)/protective; format: in vivo; conditions: protective, 500 ppm, evaluation 7 days after inoculation
Experimental: Alternaria Test (Tomato)/Protective [table] To produce an appropriate active compound formulation, 1 part by weight of active compound is mixed with the specified amounts of solvent and emulsifier, and the concentrate is diluted with water to the desired concentration. To test for protective activity, young tomato plants are sprayed with the preparation of active compound at the stated application rate. 1 day after the treatment, the plants are inoculated with a spore suspension of Alternaria solani and then remain at 100% relative humidity and 20° C. for 24 h. The plants then remain at 96% relative atmospheric humidity and a temperature of 20° C.

Plasmopara viticola = experiment: Plasmopara test (grapevine)/protective; format: in vivo; conditions: protective, 100 ppm, evaluation 6 days after inoculation
Experimental: Plasmopara Test (Grapevine)/Protective [table] To produce an appropriate active compound formulation, I part by weight of active compound is mixed with the specified amounts of solvent and emulsifier, and the concentrate is diluted with water to the desired concentration. To test for protective efficacy, young plants are sprayed with the active compound formulation at the stated application rate. After the spray coating has dried on, the plants are inoculated with an aqueous spore suspension of Plasmopara viticola and then remain in an incubation cabin at about 20° C. and 100% relative atmospheric humidity for 1 day. The plants are then placed in a greenhouse at about 21° C. and about 90% atmospheric humidity for 4 days. The plants are then moistened and placed in an incubation cabin for 1 day.

Leptosphaeria nodorum = experiment: In vitro test for determining the ED50 value with Leptosphaeria nodorum; format: cell-based; conditions: 50% inhibition of fungal growth, microtitre plates, 6 days, 20° C.
Experimental: In Vitro Test for Determining the ED50 Value with Leptosphaeria nodorum The cavities of 96-well microtitre plates are filled with 1.5 μl of a solution of the test compounds in DMSO. 150 μl of a glucose/peptone medium comprising the spores of the test fungus in a suitable concentration are introduced into each cavity. The test compounds in the microtitre cavities are used in concentrations of 20, 6, 2 and 0.6 ppm. The absorbance is determined photometrically at 620 nm. The microtitre plates are left at 20° C. and 85% relative atmospheric humidity for 6 days. Once the incubation time has passed, the growth of the test organisms is determined photometrically at a wavelength of 620 nm. The difference in absorbances before and after the incubation corresponds to the growth of the test fungi. Based on the difference of the absorbances at the various test concentrations and the difference of the absorbances of the untreated control, a dose/activity curve is calculated. The concentration required to inhibit fungal growth by 50% is determined and reported as ED50 value (=Effective Dose which causes 50% inhibition of growth) in ppm (=mg/l).

Compound	efficacy (Sphaerotheca fuliginea)	efficacy (Pyricularia oryzae)	efficacy [1]	efficacy (Venturia inaequalis)	efficacy (Alternaria solani)	efficacy (Plasmopara viticola)	ED50 (Leptosphaeria nodorum)
Cc1ccccc1C1=NOC(=O)C1=Cc1c(C)cccc1C [Compound I-9]	≥ 70%	≥ 80%	–	–	–	–	–
Cc1cc(C)c(C=C2C(=O)ON=C2c2ccccc2I)c(C)c1 [Compound I-22]	≥ 70%	≥ 80%	–	–	–	–	–
CCOc1ccccc1C1=NOC(=O)C1=Cc1c(C)cc(C)cc1C [Compound I-26]	≥ 70%	≥ 80%	–	–	–	–	–
CCOc1ccccc1C1=NOC(=O)C1=Cc1c(C)cccc1C [Compound I-27]	≥ 70%	≥ 80%	–	–	–	–	–
Cc1cc(C)c(C=C2C(=O)ON=C2c2ccccc2Cl)c(C)c1 [Compound I-28]	≥ 70%	≥ 80%	≥ 70%	≥ 70%	≥ 70%	≥ 70%	less than 1 ppm
Cc1cccc(C)c1C=C1C(=O)ON=C1c1cccc(Cl)c1Cl [Compound I-34]	–	≥ 80%	–	–	–	–	–
Cc1cccc(C)c1C=C1C(=O)ON=C1c1ccccc1 [Compound I-52]	–	≥ 80%	≥ 70%	≥ 70%	≥ 70%	≥ 70%	–
